Percent effect of library compounds

Source: ChEMBL document CHEMBL3988442, “University of Dundee, Small-Polar-MMV Screening Library” (2021).

The filed quantity is “Percent Effect” (%). The controls that fix the scale are not given in the record; negative values are as filed. This is an unselected part of the compounds tested. Two or more numbers in one place are separate tests of the same structure; such repeats can differ widely.

A: 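Growth of Mycobacterium tuberculosis over 4 days (cholesterol / DPPC medium with tyloxapol); the read-out is not stated. Compounds at 50 µM. Direction is inferred from retests: higher values go with more growth inhibition. Of about 69,000 compounds tested this way, about 370 (0.54%) reached 50% or more in at least one test.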
B: 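Growth of Mycobacterium tuberculosis over 3 days (7H9 medium with glucose and tyloxapol); the read-out is not stated. Compounds at 50 µM. Direction is inferred from retests: higher values go with more growth inhibition. About 69,000 compounds were tested under these conditions; 1.1% (about 760) showed 50% or more at least once.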

Result for O=C(O)C1CCCN(C(=O)CCn2ccc3c(Cl)cccc32)C1 (stereo unspecified) was A: -8.338%; B: 12.81%. Cc1ccc(CCNc2ncc(C)c(-c3ccnn3C)n2)s1 read A: 19.79%; B: 37.24% & 40.97%. Result for COC(=O)CNC(=O)C12CCC(=O)N1c1cc(Cl)ccc1S2 (stereo unspecified) was A: -3.681%; B: -5.676%. Result for CNCc1cn(CC2CCN(CC(C)(C)CN3CCCC3)CC2)nn1 was A: 6.702%; B: -5.158% & 1.672%. CCc1ncc(CN2CCC(O)(c3ccccc3F)CC2)cn1 gave A: 11.33% & 6.544%; B: 2.306%. With O=C(CNc1ccc(OC2CCOC2)cc1)NCc1ccc(F)cc1 (stereo unspecified) the screen gave A: 19.63%; B: -5.274%. CC(C)Cc1cc(CC2(NCc3ccco3)COC2)no1 gave A: -22.05%; B: 8.413% & -7.123%.

[H][C@]12CC[C@]([H])(CN(C(=O)c3c[nH]c(=O)c(Cl)c3)C1)N(CC1CCC1)C2 gave A: -21.73%; B: -17.61%. For CC(C)COCc1cncc2c1CCN(Cc1cnn(C)c1)C2.O=C(O)C(F)(F)F.O=C(O)C(F)(F)F the result was A: -31.31%; B: -13.86%. For O=C(CN1CCCC(CO)C1)NCCOc1cccc(Cl)c1 (stereo unspecified) the result was A: -30.04%; B: -30.48%. CC(OCC1CC1)C(=O)N1CCCN(Cc2cscn2)CC1 (stereo unspecified) read A: 9.807%; B: 26.22%. With CC(=O)N(C)CC(=O)NC(CC(C)C)c1cccs1 (stereo unspecified) the screen gave A: 7.047%; B: -5.834%. For O=C(NCCO)c1sc2ncccc2c1C1CN(C2CCCC2)CCO1 (stereo unspecified) the result was A: 21.92%; B: 30.04%. Result for CCOc1ccc(Oc2cc(N)ccn2)cc1 was A: 23.49%; B: 30.73% & 25.67%.

Cc1nc2n(n1)CC(NCCc1cccs1)CC2 (stereo unspecified) gave A: -7.031%; B: 7.081% & -17.66%. Result for COc1cccc(C(O)CN2CCN(C(=O)c3ccsc3)CC2)c1 (stereo unspecified) was A: -3.775%; B: -10.14%. With CN(CCC1CCOCC1)[C@@H]1c2ccccc2C2(CCNCC2)[C@H]1O the screen gave A: 2.277%; B: 11.82%. COCCNc1nc(-c2ccc(S(=O)(=O)N3CCCCCC3)cc2)cs1 read A: 17.13%; B: 39.15%. With CCc1nc(CN2CCCN(C(=O)C3CCC3)CC2)cs1 the screen gave A: -13.76%; B: -12.39%. For Cc1nc(CCCNC(=O)C2CC(=O)N(C(C)(C)C)C2)sc1C (stereo unspecified) the result was A: -14.4%; B: 0.3038%. Cn1cc(N2CC3(CCN(Cc4cccnc4)CC3)OCC2=O)cn1.O=C(O)C(F)(F)F.O=C(O)C(F)(F)F read A: 1.439%; B: -7.26%.

For CCOCCC(=O)NCCNc1nccc(C(F)(F)F)n1 the result was A: -6.488% & -13.59%; B: -4.477%. Result for Cc1cnn(CC2CCCN2Cc2nc3ccccc3nc2C)c1 (stereo unspecified) was A: 7.542%; B: 17.26%. Result for [H][C@@]12CCCN[C@]1([H])CN(C(=O)NCC(C)C)C2 was A: -2.187%; B: 16.25%. For COCCN1CCC(c2nc3ccc(N4CCCC4)cn3n2)CC1.O=C(O)C(F)(F)F the result was A: -1.558%; B: 26.92% & -0.6071%. CN(C(=O)CCc1cccs1)C1CCCN(C2Cc3ccccc3C2)C1 (stereo unspecified) read A: -1.844% & 5.691%; B: 0.2191%. Cc1ccc(Oc2ccc(NC(=O)NCC3CCOC3)cn2)cc1C (stereo unspecified) gave A: -9.227%; B: 10.34%. Result for CC1CCN(CCNC(=O)Nc2ccc(F)cc2Cl)CC1 was A: -26.95%; B: -50.18% & -12.65%.

Result for CC(C)(C)CN1CCC(c2nnc(Cn3ccnc3)n2C2CC2)CC1 was A: 28.6% & -6.119%; B: 22.7%. Result for CN(Cc1nc2ccccc2n1C)C(=O)CCc1cscn1 was A: 5.133%; B: 33.89%. CN(C)c1cc(C(=O)N2CCCC(n3cccn3)C2)ccn1 (stereo unspecified) gave A: 15.07%; B: 13.81%. Cc1nc(C)n(CC2CN(Cc3ccc4c(c3)OCCO4)CCO2)n1 (stereo unspecified) gave A: -30.46%; B: 9.532%. With COC(=O)CN1CC2(CCNCC2)COc2ccccc2S1(=O)=O.O=C(O)C(F)(F)F the screen gave A: -15.3%; B: -7.77%. CC1(C)CC2(CCO1)NC(=O)c1cc(Br)ccc1-n1nnnc12 (stereo unspecified) read A: -3.547%; B: -2.917%.

For reference, 3 entries once more:

{"compound": "CN(CCC1CCOCC1)[C@@H]1c2ccccc2C2(CCNCC2)[C@H]1O", "A": 2.277, "B": 11.82}
{"compound": "O=C(CNc1ccc(OC2CCOC2)cc1)NCc1ccc(F)cc1", "stereo": "stereo unspecified", "A": 19.63, "B": -5.274}
{"compound": "CN(Cc1nc2ccccc2n1C)C(=O)CCc1cscn1", "A": 5.133, "B": 33.89}